Source: patent publication US12134617B1, “Pyrimido[1′6′:1,5]pyrazolo[4,3-c][1,7]naphthyridines as CK2 inhibitors” (KING FAISAL UNIVERSITY, priority 2024, dated 2024)

Legend:
Format in all cases: cell-based
PC3 (prostate) = assay: In vitro cytotoxic activity (MTT) assay, PC3; conditions: Homo sapiens, PC-3; PC3 cells, exposed for 96 hours, 50% inhibition of cell proliferation; read-out: Cytotoxicity activity IC50, PC3 (prostate)
Method: (§1) In Vitro Cytotoxic Activity Assay
(§2) Compounds 1-16 were screened for their in vitro cytotoxic activity utilizing a 3-(4,5-dimethyl-thiazol-2-yl)-2,5-diphenyltetrazolium bromide (MTT) assay against selected cancer human cell lines consisting of PC3 (prostate), HCT116 (colon), A375 (melanoma), H1299 (lung), MIAPaCa-2 (pancreas), HL60 (leukemia), MCF7 (breast), MDA-MB-231 (breast) (T. Mosmann, J. Immunol. Meth., 1983, 65, 55-63). The cells were cultured at 37° C. in RMPI1640 medium supplemented with 10% fetal bovine serum, 50 IU/mL penicillin, and 50 μg/mL streptomycin in a 5% CO2 incubator. All cells were sub-cultured 3 times/week by trypsinisation. Viable cells were seeded and allowed to adhere for 12 hours before a test drug was added in 96-well plates at an initial density of 1.0×10^5 cells/mL. Tumor cell lines were separately exposed to various concentrations of the tested compounds followed by incubation at a temperature of 37° C. during 96 hours inside a medium of fresh RMPI 1640. Cells were subsequently incubated at 37° C. using MTT at 0.5 mg/mL during 4 hours. After removal of supernatant, formazan crystals were dissolved in isopropanol and the optical density was measured at 570 nm. CX-4945 was used as a positive control.

HCT116 (colon) = assay: In vitro cytotoxic activity (MTT) assay, HCT116; conditions: Homo sapiens, HCT-116; HCT116 cells, exposed for 96 hours, 50% inhibition of cell proliferation; read-out: Cytotoxicity activity IC50, HCT116 (colon)
Method: as §1, §2

A375 (melanoma) = assay: In vitro cytotoxic activity (MTT) assay, A375; conditions: Homo sapiens, A-375; A375 cells, exposed for 96 hours, 50% inhibition of cell proliferation; read-out: Cytotoxicity activity IC50, A375 (melanoma)
Method: as §1, §2

H1299 (lung) = assay: In vitro cytotoxic activity (MTT) assay, H1299; conditions: Homo sapiens, NCI-H1299; H1299 cells, exposed for 96 hours, 50% inhibition of cell proliferation; read-out: Cytotoxicity activity IC50, H1299 (lung)
Method: as §1, §2

MIAPaCa-2 (pancreas) = assay: In vitro cytotoxic activity (MTT) assay, MIAPaCa-2; conditions: Homo sapiens, MIA PaCa-2; MIAPaCa-2 cells, exposed for 96 hours, 50% inhibition of cell proliferation; read-out: Cytotoxicity activity IC50, MIAPaCa-2 (pancreas)
Method: as §1, §2

HL60 (leukemia) = assay: In vitro cytotoxic activity (MTT) assay, HL60; conditions: Homo sapiens, HL-60; HL60 cells, exposed for 96 hours, 50% inhibition of cell proliferation; read-out: Cytotoxicity activity IC50, HL60 (leukemia)
Method: as §1, §2

MCF7 (breast) = assay: In vitro cytotoxic activity (MTT) assay, MCF7; conditions: Homo sapiens; MCF7 cells, exposed for 96 hours, 50% inhibition of cell proliferation; read-out: Cytotoxicity activity IC50, MCF7 (breast)
Method: as §1, §2

MDA-MB-231 (breast) = assay: In vitro cytotoxic activity (MTT) assay, MDA-MB-231; conditions: Homo sapiens; MDA-MB-231 cells, exposed for 96 hours, 50% inhibition of cell proliferation; read-out: Cytotoxicity activity IC50, MDA-MB-231 (breast)
Method: as §1, §2

O=C(O)c1ccc2c(c1)nc(Nc1cccc(Cl)c1)c1ccncc12 [CX-4945, reference compound] gave an IC50 (PC3 (prostate)) of 2000 nM, an IC50 (HCT116 (colon)) of 2300 nM and an IC50 (A375 (melanoma)) of 4100 nM. The IC50 (H1299 (lung)) was 2300 nM, the IC50 (MIAPaCa-2 (pancreas)) was 1000 nM and the IC50 (HL60 (leukemia)) was 3700 nM. It also gave an IC50 (MCF7 (breast)) of 9100 nM and an IC50 (MDA-MB-231 (breast)) of 6200 nM.
